# Measurements published in PubChem BioAssay AID1671190 (National Center for Advancing Translational Sciences (NCATS), 2021).
# Protein sequences, listed by entry. Tags and fused reporters are not part of them. Lines headed by an entry give the natural chain unless they say otherwise; changes in a name come on top.
# UniProt P18054: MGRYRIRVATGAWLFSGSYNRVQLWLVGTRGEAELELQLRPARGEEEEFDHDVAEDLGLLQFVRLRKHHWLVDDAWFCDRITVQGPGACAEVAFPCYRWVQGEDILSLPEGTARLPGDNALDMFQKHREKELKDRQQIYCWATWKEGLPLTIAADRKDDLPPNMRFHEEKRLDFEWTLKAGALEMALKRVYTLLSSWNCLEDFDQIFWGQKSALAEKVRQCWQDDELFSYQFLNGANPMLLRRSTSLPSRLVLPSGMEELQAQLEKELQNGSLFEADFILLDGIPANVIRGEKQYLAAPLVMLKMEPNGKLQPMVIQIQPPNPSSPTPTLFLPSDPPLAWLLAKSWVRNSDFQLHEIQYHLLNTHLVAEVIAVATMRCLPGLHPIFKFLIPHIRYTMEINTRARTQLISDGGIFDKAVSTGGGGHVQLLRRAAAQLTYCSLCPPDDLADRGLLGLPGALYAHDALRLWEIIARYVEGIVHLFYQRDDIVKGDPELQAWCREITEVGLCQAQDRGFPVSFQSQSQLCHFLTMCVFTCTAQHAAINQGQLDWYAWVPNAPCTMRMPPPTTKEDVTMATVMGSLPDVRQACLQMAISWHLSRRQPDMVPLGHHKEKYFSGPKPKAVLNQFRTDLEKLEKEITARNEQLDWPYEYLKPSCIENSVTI
# Out of some 580,000 compounds screened, about 6,100 (1.1%) were called active. Inconclusive means that the source gave no clear call. Such entries were picked first, then a sample of the others. The call rests on the fitted dose curve; in most records, active means well fitted inhibition curve with a large enough effect; inconclusive means small, poorly fitted or top-dose-only effect, or another doubt; inactive means no such curve, though single readings can be large or run the other way. Where the call is inconclusive, the potency comes from a doubtful curve fit.
# Target: Polyunsaturated fatty acid lipoxygenase ALOX12 (Homo sapiens) (UniProt P18054)
# Assay: Primary qHTS assay for inhibitors of human arachidonate 12S-lipoxygenase (ALOX12): Round 2
# Details: purified 12hLO, xylenol orange hydroperoxide absorbance; series mostly up to 108 µM
# Outline: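 Purified human 12hLO at 150 nM in 25 mM Hepes, 0.01% Triton X-100, pH 7.0, preincubated 15 min at room temperature with compound. Reaction started with 40 uM arachidonic acid, 30 min at room temperature. Hydroperoxide measured by Fe-xylenol orange, 573/405 nm absorbance ratio.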
# Potency means the concentration at half of the fitted maximal effect.
row,Compound,Potency
1,Cc1ccccc1/C=N\NC(=O)c1csnn1,"inconclusive: 25.1 µM [inhibitor, partial curve, poor fit]"
2,CN(C)S(=O)(=O)c1cc(NC(=O)CSc2ncc(C(F)(F)F)cc2Cl)ccc1Cl,inactive
3,CCCCNC(=O)C1C(c2ccccc2)=Nc2ccccc2N1C(=O)c1ccc(C(F)(F)F)cc1 (centres undefined),inactive
4,CCC(C)(C)NC(=O)CCc1ccc(C#N)cc1,"inconclusive: 2.24 µM [inhibitor, full curve, poor fit]"
5,O=C(/C=C/c1ccccc1)NC(NC(=S)Nc1ccc(C(=O)O)cc1)C(Cl)(Cl)Cl (centres undefined),"inconclusive: 44.7 µM [inhibitor, partial curve, poor fit]"
6,Clc1cc(Br)ccc1OCCOCCN1CCCC1,"inconclusive: 2.82 µM [inhibitor, full curve, poor fit]"
7,O=C(NCC(c1ccc(F)cc1)N1CCOCC1)c1ccc(Br)o1 (centres undefined),"inconclusive: 7.94 µM [inhibitor, full curve]"
8,COCCOC1CCN(C(=O)Nc2ccc(C(=O)OC)cc2)CC1,inactive
9,O=C(NC1CC1)C(Sc1cccc(C(F)(F)F)c1)c1ccccc1 (centres undefined),inactive
10,CN(C)Cc1cn(C[C@H]2C[C@@H](NC(=O)c3nc4ccccc4s3)[C@H](O)[C@@H]2O)nn1,inactive
11,COc1ccc(C2CC(c3ccccc3NS(C)(=O)=O)=NN2C(=O)c2cccs2)cc1 (centres undefined),"inconclusive: 17.8 µM [inhibitor, single point]"
12,N[C@@H](C(=O)N[C@@H]1C(=O)N2C(C(=O)O)=C(Cl)CS[C@H]12)c1ccccc1,inactive
13,CCCN(C)C1CN(Cc2cn(Cc3cccc(Cl)c3)nn2)S(=O)(=O)C1 (centres undefined),inactive
14,CC(C)CN(C)C(=O)/C=C/c1ccc(-c2ccccc2)s1,"inconclusive: 141 µM [inhibitor, single point]"
15,COc1ccc2c(C)cc3n[nH]c(=S)n3c2c1,"inconclusive: 3.98 µM [inhibitor, partial curve, poor fit]"
16,Cc1ccc(-c2cc(C(=O)O)c3cccc(Cl)c3n2)s1,"inconclusive: 79.4 µM [inhibitor, single point]"
17,Cn1c(-c2sc(=S)n(-c3ccccc3)c2N)nc2ccccc21,inactive
19,O=C1OC(c2ccccc2)/C(=C(/O)c2ccccc2)C1=O (centres undefined),"inconclusive: 0.501 µM [inhibitor, full curve]"

# Quoted from above, 2 compounds:
row,Compound,Potency
2,CN(C)S(=O)(=O)c1cc(NC(=O)CSc2ncc(C(F)(F)F)cc2Cl)ccc1Cl,inactive
3,CCCCNC(=O)C1C(c2ccccc2)=Nc2ccccc2N1C(=O)c1ccc(C(F)(F)F)cc1 (centres undefined),inactive
